Values from PubChem BioAssay AID1259308 (NCATS, 2017).

Screen: 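Candidate targets for better recombinant protein yield in mammalian cells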 (primary screen)
Cell system: human HEK293 embryonic kidney cells stably expressing firefly luciferase (HEK-CMV-Luc2-Hygro)
Reagent: single siRNA against human genes, 0.8 pmol siRNA per well
Duration: 72 h
Measurement: 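Reporter luminescence and viable-cell signal on separate replicate plates, given as percent of non-targeting control and median/MAD z-scores, plus per-cell luciferase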
Scale: total luciferase, z-score: higher = more reporter protein produced
Call rule: 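Active when the median/MAD z-score for overall luciferase is greater than 3; a gene was taken forward for validation with new siRNAs if at least two of its three siRNAs passed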
Calls: active = raised luciferase; inactive = no rise
This is one part, drawn at random, of about 59,000 deposited reagents. About 1,510 of all reagents (2.6%) were called active. 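Calls use total luciferase alone and ignore viability, so some active siRNAs may act by altering cell number.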 Entries without a mark were called inactive. Not all columns of the deposit are shown.

Depletion of ANXA13 [SID160717969] came out at: total luciferase, z-score 0.0431.
With knock-down of ANXA13 [SID160717989], the record shows total luciferase, z-score 3.13 (active).
Silencing of ANXA13 [SID160731066] resulted in: total luciferase, z-score -1.11.
Silencing of C19orf12 [SID160751251] resulted in: total luciferase, z-score 0.557.
Against C19orf12 [SID160751253], the entry reads total luciferase, z-score 0.133.
Against C19orf12 [SID160751254], the entry reads total luciferase, z-score -1.59.
With knock-down of NRXN2 [SID160722080], the screen gave total luciferase, z-score 1.1.
NRXN2 [SID160722082] scored total luciferase, z-score 0.721.
With knock-down of NRXN2 [SID160722083], the screen gave total luciferase, z-score -0.246.
Against FGG [SID160765521] the deposit lists total luciferase, z-score -1.36.
Depletion of FGG [SID160765531] came out at: total luciferase, z-score -0.953.
With knock-down of FGG [SID160765540] the results were total luciferase, z-score -1.32.
Knock-down of SERPINA4 [SID160714276] came out at: total luciferase, z-score -0.379.
Against SERPINA4 [SID160714277], the entry reads total luciferase, z-score -0.528.
With knock-down of SERPINA4 [SID160714278], the screen gave total luciferase, z-score 1.52.
Knock-down of CAVIN2 [SID160720030] gave: total luciferase, z-score 0.422.
For CAVIN2 [SID160720031], the values are total luciferase, z-score -1.07.
For CAVIN2 [SID160732022], the values are total luciferase, z-score -0.271.
Against MAST4 [SID160765436], the entry reads total luciferase, z-score 0.654.
For MAST4 [SID160765437], the entry reads total luciferase, z-score -0.511.
Silencing of MAST4 [SID160765439] gave: total luciferase, z-score -0.0978.
After knock-down of ACAA1 [SID160777263], the screen gave total luciferase, z-score -0.515.
Knock-down of ACAA1 [SID160777275] came out at: total luciferase, z-score -0.164.
Knock-down of ACAA1 [SID160777286] resulted in: total luciferase, z-score 0.523.
MEAK7 [SID160746628] showed total luciferase, z-score -1.96.
Against MEAK7 [SID160746629], the entry reads total luciferase, z-score 0.148.
MEAK7 [SID160746630] showed total luciferase, z-score 0.383.
RPLP2 [SID160724042] gave total luciferase, z-score -2.76.
With knock-down of RPLP2 [SID160724043], the record shows total luciferase, z-score -2.51.
RPLP2 [SID160724044] showed total luciferase, z-score -2.63.
Against OR2A7 [SID160733344] the deposit lists total luciferase, z-score 0.23.
Knock-down of OR2A7 [SID160767278] gave: total luciferase, z-score 1.86.
For OR2A7 [SID160767279] the deposit lists total luciferase, z-score 1.78.
